According to publication PMC7367456:

Biological target: T1, S-adenosyl-L-homocysteine hydrolase 2 (SAHH2), Arabidopsis thaliana (Arabidopsis thaliana (endogenous in leaves)) (UniProt Q9LK36)
T1 sequence: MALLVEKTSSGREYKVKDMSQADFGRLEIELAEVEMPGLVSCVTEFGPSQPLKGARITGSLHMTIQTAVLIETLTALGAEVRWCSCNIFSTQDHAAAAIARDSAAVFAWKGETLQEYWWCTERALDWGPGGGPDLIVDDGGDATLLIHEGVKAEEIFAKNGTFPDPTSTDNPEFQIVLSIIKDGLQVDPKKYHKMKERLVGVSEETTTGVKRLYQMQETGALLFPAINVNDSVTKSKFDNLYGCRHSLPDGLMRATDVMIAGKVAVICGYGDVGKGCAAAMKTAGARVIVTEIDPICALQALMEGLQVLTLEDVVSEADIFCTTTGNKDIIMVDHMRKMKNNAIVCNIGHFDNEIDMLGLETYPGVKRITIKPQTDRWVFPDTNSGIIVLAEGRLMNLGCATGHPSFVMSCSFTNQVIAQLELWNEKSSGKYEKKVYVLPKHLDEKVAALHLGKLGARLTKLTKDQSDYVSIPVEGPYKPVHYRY
Assay: native gel or EMSA; 2D Clear Native PAGE of A. thaliana leaf extract, immunoblots with anti-SAHH and anti-ADK antibodies

ADENOSINE KINASE (ADK), Arabidopsis thaliana (enzyme)
binding: no binding

No constants are given. Whether binding was seen depends on the method and setting.
